PubChem BioAssay AID652243 | Drosophila RNAi Screening Center | 2013
The deposit covers about 24,000 reagents; this is an unselected part of those that have a named target and a result. In the full data, 246 (1%) were called active. 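Plates not normalised; calls are printed but the firefly/Renilla ratio behind them is not deposited; fold cut for lowering reported inconsistently.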 Raw values vary from plate to plate and are shown uncorrected. The numbers tell different reagents against one gene apart. Names joined by + are all predicted targets of the reagent. Not given: the amount of reagent.

- Purpose: 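Fly genes required for human androgen receptor driven transcription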 (primary screen)
- System: Drosophila S2R+ cells
- Reagents: long dsRNA against Drosophila genes
- Timing: 72 h (48 h, then 24 h hormone)
- Treatment: synthetic androgen R1881 at 10 nM for 24 h
- Read-out: 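Firefly light from an androgen-responsive reporter and Renilla control light per well, raw and unnormalised, for each of two replicates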
- Reading the numbers: firefly reporter light: higher = more light from androgen-responsive reporter; Renilla control light: higher = more constitutive control signal (cell number, transfection)
- Call rule: 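Across duplicate plates, a knock-down whose log firefly/Renilla ratio shifted a set fold down or up from the GFP/LacZ control mean was a hit; the downward cut appears as both 1.5 and 3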
- Calls: active = hit: reporter lowered or raised; inactive = no hit

no.	target gene	dsRNA no.	firefly reporter light, replicate 1	firefly reporter light, replicate 2	Renilla control light, replicate 1	Renilla control light, replicate 2	call
1	Rpn5	1	31006	49204	2.26e5	2.00e5	inactive
2	Rpn5	2	3.89e5	6.56e5	8.11e5	1.25e6	inactive
3	spz5	1	8.27e5	8.78e5	1.69e6	1.77e6	inactive
4	mRpL3	1	5.77e5	4.96e5	3.37e6	3.10e6	inactive
5	Art3	1	1.03e5	1.18e5	8.65e5	9.10e5	inactive
6	CG10561	1	9.71e5	8.30e5	2.31e6	1.91e6	inactive
7	CG4613	1	2.01e5	2.19e5	1.62e6	1.37e6	inactive
8	CG4613	2	9.98e5	1.12e6	1.20e6	1.40e6	inactive
9	tea	1	1.01e6	1.09e6	1.76e6	1.88e6	inactive
10	tea	2	2.80e5	2.98e5	1.64e6	1.92e6	inactive
11	AstCC	1	1.77e5	1.69e5	2.06e6	1.22e6	inactive
12	retm	1	2.79e5	4.89e5	9.70e5	1.23e6	inactive
13	Cp19	1	1.35e5	1.09e5	1.71e6	1.54e6	inactive
14	Cp19	2	6.20e5	4.72e5	1.45e6	1.75e6	inactive
15	ocn	1	2.87e5	1.85e5	2.57e6	2.80e6	inactive
16	Vps51	1	1.06e6	1.25e5	1.04e6	2.74e5	inactive
17	CG13155	1	2.61e5	2.26e5	1.24e6	1.63e6	inactive
18	CG7691	1	1.04e5	1.27e5	1.40e6	1.73e6	inactive
19	SMC1	1	1.92e5	1.96e5	2.27e6	1.99e6	inactive
20	Nadk1a	1	88806	1.77e5	1.72e5	2.11e5	inactive
21	Nadk1a	2	1.15e6	7.90e5	3.10e6	2.40e6	inactive
22	Pp2A-29B	1	1.66e5	1.72e5	2.67e6	2.56e6	inactive
23	Pp2A-29B	2	5.14e5	7.46e5	8.21e5	1.15e6	inactive
24	Pp2A-29B	3					inactive
25	CG9970	1	1.50e5	76452	2.12e6	1.44e6	inactive
26	CG11600	1	86963	89520	1.63e6	1.29e6	inactive
27	CG11600	2	8.80e5	9.48e5	1.17e6	1.42e6	inactive

Reprinted from above (3 entries):
no.	target gene	dsRNA no.	firefly reporter light, replicate 1	firefly reporter light, replicate 2	Renilla control light, replicate 1	Renilla control light, replicate 2	call
21	Nadk1a	2	1.15e6	7.90e5	3.10e6	2.40e6	inactive
22	Pp2A-29B	1	1.66e5	1.72e5	2.67e6	2.56e6	inactive
23	Pp2A-29B	2	5.14e5	7.46e5	8.21e5	1.15e6	inactive

More entries follow.
no.	target gene	dsRNA no.	firefly reporter light, replicate 1	firefly reporter light, replicate 2	Renilla control light, replicate 1	Renilla control light, replicate 2	call
28	CG15506	1	1.56e5	1.49e5	1.60e6	2.44e6	inactive
29	Dbp45A	1	8.50e5	1.06e6	1.27e6	1.70e6	inactive
30	CG14759	1	3.87e5	3.38e5	2.69e6	1.51e6	inactive
31	CG11695	1	67743	51722	1.82e6	1.65e6	inactive
32	CG11695	2	4.40e5	3.56e5	8.43e5	1.23e6	inactive
33	CG2157	1	6.30e5	5.32e5	4.53e6	3.68e6	inactive
34	CG30087	1	7.89e5	6.40e5	2.79e6	2.53e6	inactive
35	CG30087	2	4.18e5	3.19e5	8.70e5	4.21e5	inactive
36	bbc	1	3.59e5	3.78e5	3.15e6	3.48e6	inactive
37	bbc	2	5.51e5	5.69e5	2.03e6	1.62e6	inactive
38	CG11381	1	7970	10291	4.14e5	2.95e5	inactive
39	CG11381	2	7.44e5	5.85e5	8.82e5	8.40e5	inactive
40	Slob	1	2.47e5	2.00e5	1.81e6	1.22e6	inactive
41	Slob	2	3.79e5	6.39e5	1.62e6	2.23e6	inactive
42	Slob	3					inactive
43	Slob	4					inactive
44	CG8840	1	1.14e5	1.11e5	8.57e5	1.11e6	inactive
45	CG12171	1	58854	83300	1.68e6	1.35e6	inactive
46	CG12171	2	1.36e6	1.49e6	8.96e5	9.58e5	inactive
47	CR40450 + CG32767	1	56453	75505	6.11e5	4.21e5	inactive
48	CG5122	1	2.23e5	2.04e5	1.58e6	1.54e6	inactive
49	gkt	1	1.12e5	1.42e5	1.06e6	1.01e6	inactive
50	CG14186	1	40821	62598	2.73e5	2.81e5	inactive
51	CG14186	2	5.65e5	6.00e5	1.24e6	1.29e6	inactive
52	vir-1	1	1.44e5	1.42e5	9.61e5	1.14e6	inactive
53	vir-1	2	80676	77077	8.09e5	9.39e5	inactive
54	vir-1	3	7.87e5	7.70e5	7.09e5	5.73e5	inactive
55	Arl4	1	2.45e5	2.53e5	2.18e6	3.27e6	inactive
56	Ars2	1	1.09e6	1.06e6	3.02e6	2.95e6	inactive
57	CG4707	1	6.11e5	5.24e5	1.03e6	1.01e6	inactive
58	CG17601	1	2.11e5	1.69e5	6.06e5	4.48e5	inactive
